No constants are given. Whether binding was seen depends on the method and setting. Binding seen in cells or lysates may run through a third protein. Some results given as binding are weak or reduced against the parent protein; the word gives no strength. For some assays here: Where a sequence is shown, tags or fusion partners need not be part of it.
Legend:
[1] = molecular target: T1, Protein tyrosine phosphatase 1B (human (endogenous in DLD1)) (UniProt P18031); test: co-IP; endogenous immunoprecipitation from DLD1 cells, western blot; which protein was precipitated is not told
T1 sequence: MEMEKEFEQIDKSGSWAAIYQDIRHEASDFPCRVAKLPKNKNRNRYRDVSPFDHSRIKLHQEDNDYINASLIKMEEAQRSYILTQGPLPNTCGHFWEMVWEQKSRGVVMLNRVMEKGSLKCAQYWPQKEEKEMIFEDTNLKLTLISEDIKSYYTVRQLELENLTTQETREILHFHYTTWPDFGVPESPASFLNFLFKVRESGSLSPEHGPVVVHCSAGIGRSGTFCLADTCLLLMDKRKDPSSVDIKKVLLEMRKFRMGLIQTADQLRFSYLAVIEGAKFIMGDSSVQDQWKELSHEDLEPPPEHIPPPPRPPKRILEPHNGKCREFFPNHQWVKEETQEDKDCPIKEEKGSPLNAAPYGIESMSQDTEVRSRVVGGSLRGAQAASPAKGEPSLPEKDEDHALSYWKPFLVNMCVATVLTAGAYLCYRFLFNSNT

Amino acid sequences for entries named in this document (tags omitted).
UniProt P78337: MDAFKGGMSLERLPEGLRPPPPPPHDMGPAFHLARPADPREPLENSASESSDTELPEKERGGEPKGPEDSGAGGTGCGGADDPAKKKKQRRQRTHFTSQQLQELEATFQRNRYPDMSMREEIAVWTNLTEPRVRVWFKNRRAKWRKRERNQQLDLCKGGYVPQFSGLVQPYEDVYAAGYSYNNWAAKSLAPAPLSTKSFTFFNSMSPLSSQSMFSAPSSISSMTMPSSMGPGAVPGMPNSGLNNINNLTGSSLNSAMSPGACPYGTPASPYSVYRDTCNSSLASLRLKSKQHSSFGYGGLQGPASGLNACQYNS

[2] = molecular target: T2, Protein tyrosine phosphatase 1B, overexpressed with myc-tag (human) (UniProt P18031); test: co-IP; Hct-116 cells overexpressing PTP1B, immunoprecipitation, western blot
T2 sequence: T1 sequence

binding [1] | binding [2] | Substance
binds | – | PITX1 (from UniProt P78337 1-314)
– | binds | PITX1 in Hct-116 cells (from UniProt P78337 1-314)

— PMC5082755
